Data taken from publication doi:10.1101/2022.12.02.518933.
Where a chain is given by its changes, count along the chain named. In names and notes the source's numbering stands. These are yes or no findings as the source states them, for the method shown. Some results given as binding are weak or reduced against the parent protein; the word gives no strength. Blank lines part the entries; values can stand above or below the binder they belong to.

Tests used:
[1] = target: T1, BtuCD (wild type) reconstituted into MSP1E3D1 nanodiscs with E. coli polar lipids (E. coli) (UniProt P06609+P06611); test: fluorescence polarisation
T1 sequence 1: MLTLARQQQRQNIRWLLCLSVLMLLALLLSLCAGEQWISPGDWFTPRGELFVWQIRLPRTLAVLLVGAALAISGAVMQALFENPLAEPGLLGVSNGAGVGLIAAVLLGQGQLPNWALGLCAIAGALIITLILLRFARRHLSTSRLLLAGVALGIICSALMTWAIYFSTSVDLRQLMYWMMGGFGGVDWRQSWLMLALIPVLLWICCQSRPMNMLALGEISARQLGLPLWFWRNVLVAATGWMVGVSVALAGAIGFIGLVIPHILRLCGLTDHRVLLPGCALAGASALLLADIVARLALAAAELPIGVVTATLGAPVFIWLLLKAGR
T1 sequence 2: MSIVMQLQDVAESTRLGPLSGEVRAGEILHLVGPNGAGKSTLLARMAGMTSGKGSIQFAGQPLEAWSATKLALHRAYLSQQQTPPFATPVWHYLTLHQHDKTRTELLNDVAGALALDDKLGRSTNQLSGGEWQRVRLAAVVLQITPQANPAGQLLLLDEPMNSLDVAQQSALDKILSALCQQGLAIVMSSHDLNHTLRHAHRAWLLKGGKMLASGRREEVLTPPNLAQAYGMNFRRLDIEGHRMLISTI

[2] = target: T1, BtuCD (wild type) reconstituted into MSP1E3D1 nanodiscs with E. coli polar lipids (E. coli); test: other fluorescence titration
[3] = target: T1, BtuCD (wild type) reconstituted into MSP1E3D1 nanodiscs with E. coli polar lipids (E. coli); test: fluorescence polarisation; remark: listed apart in the source

binding [1]: binds
B1: unlabeled BtuF (protein, UniProt P37028 23-266)
chain: APRVITLSPANTELAFAAGITPVGVSSYSDYPPQAQKIEQVSTWQGMNLERIVALKPDLVIAWRGGNAERQVDQLASLGIKVMWVDATSIEQIANALRQLAPWSPQPDKAEQAAQSLLDQYAQLKAQYADKPKKRVFLQFGINPPFTSGKESIQNQVLEVCGGENIFKDSRVPWPQVSREQVLARSPQAIVITGGPDQIPKIKQYWGEQLKIPVIPLTSDWFERASPRIILAAQQLCNALSQVD

binding [1]: binds
B2: AF546-labeled BtuF harboring the E72A mutation (protein, UniProt P37028 23-266)
chain: B1 chain with E50A
modifications: Alexa Fluor 546 C5 maleimide on the cysteine appended to the C-terminus

binding [2]: binds | binding [3]: binds | binding [1]: binds
B3: AlexaFluor 546 (AF546)-labeled E. coli BtuF (protein, UniProt P37028 23-266)
chain: B1 chain
modifications: Alexa Fluor 546 C5 maleimide on the cysteine appended to the C-terminus

binding [1]: binds
B4: AF546-labeled BtuF harboring the E202A mutation (protein, UniProt P37028 23-266)
chain: B1 chain with E180A
modifications: Alexa Fluor 546 C5 maleimide on the cysteine appended to the C-terminus
